Results as given in patent publication US20230321045A1 (priority 2022, published 2023).
Entries after “also recorded” stand apart in the source; their conditions may differ. At least one compound was matched to its structure with a doubt left.

Experiments:
Parameters in all cases: species or system female Balb/c mice
Conditions in all cases: mouse, in vivo
H1N1 (PR8) [1] = tested on: H1N1 (PR8)
H1N1 (PR8) [2] = tested on: H1N1 (PR8); remark: listed apart in the source
H1N1 (PR8) [3] = tested on: H1N1 (PR8); remark: listed apart in the source
H1N1 (PR8) [4] = tested on: H1N1 (PR8); remark: listed apart in the source

For `C[C@@H]1C[C@H]2[C@@H]3CCC4=CC(=O)C=C[C@]4(C)[C@@]3(F)[C@@H](O)C[C@]2(C)[C@@]1(O)C(=O)CO` [Dexamethasone], the “animals culled for welfare reasons” value (H1N1 (PR8) [1]) was “Three out of the seven”, the “body weight / body weight loss vs H1N1 vehicle control group” value (H1N1 (PR8) [1]) was “did not result in reduction of the clinical signs or body weight loss; also recorded: statistically significantly lower (p<0.05) body weight from Day 10; also recorded: no attenuation of the clinical signs or body weight loss” and the “clinical signs associated with H1N1 infection” value (H1N1 (PR8) [1]) was “did not result in reduction of the clinical signs; also recorded: no attenuation of the clinical signs”. For the same compound, the “BAL total and differential cells compared to the H1N1 control group” value (H1N1 (PR8) [2]) was “did not demonstrate a statistically significant reduction in the total number of inflammatory cells; also recorded: lower but not statistically significant total BAL cells, neutrophils, eosinophils, mononuclear cells (macrophages) and lymphocytes; also recorded: lower, but not statistically significant total BAL cells, neutrophils, eosinophils, mononuclear cells (macrophages) and lymphocytes”, the “BAL cytokine levels compared to the H1N1 control group” value (H1N1 (PR8) [3]) was “statistically significantly (p<0.01) lower BAL IL-6, KC and IFN-γ; also recorded: no statistically significant changes in TNFα and IP-10; also recorded: lower BAL IL-6, KC and IFN-7” and the “PenH compared to the H1N1 control group” value (H1N1 (PR8) [4]) was “lower PenH”. The “tidal volume compared to the H1N1 control group” value (H1N1 (PR8) [4]) was “higher tidal volume”.
